Experimental data as given in patent publication US20110318270A1, “DRUG IDENTIFICATION PROTOCOL FOR TYPE 2 DIABETES BASED ON GENE EXPRESSION SIGNATURES” (VERVA PHARMACEUTICALS LTD, priority 2009, published 2011).

Tested on: Diet-induced obese (DIO) mice
Experiment: Insulin sensitising effects of CAIs in diet-induced obese mice
Assay type: in vivo
Conditions: 50 mg/kg/day for 14 days, intraperitoneal glucose tolerance test
Protocol: Diet-induced obese (DIO) mice were treated with each CAI at 50 mg/kg/day for 14 days.

NS(=O)(=O)c1cc(C(=O)O)c(NCc2ccco2)cc1Cl [furosemide]
reduction in the incremental area under the glucose curve (AUC) compared with vehicle-treated animals / glucose disposal: did not affect glucose disposal
